# Results as given in doi:10.1101/611533.
# Results are given in words; binding and its absence hold for the method and conditions named. In cells and extracts the contact can be indirect. Some entries that bind do so weakly or less than the wild type. Tags and fused reporters may be left off the sequences shown.
# T1: FLAG-UBP12 (Arabidopsis thaliana) (UniProt Q9FPT1)
# T1 sequence: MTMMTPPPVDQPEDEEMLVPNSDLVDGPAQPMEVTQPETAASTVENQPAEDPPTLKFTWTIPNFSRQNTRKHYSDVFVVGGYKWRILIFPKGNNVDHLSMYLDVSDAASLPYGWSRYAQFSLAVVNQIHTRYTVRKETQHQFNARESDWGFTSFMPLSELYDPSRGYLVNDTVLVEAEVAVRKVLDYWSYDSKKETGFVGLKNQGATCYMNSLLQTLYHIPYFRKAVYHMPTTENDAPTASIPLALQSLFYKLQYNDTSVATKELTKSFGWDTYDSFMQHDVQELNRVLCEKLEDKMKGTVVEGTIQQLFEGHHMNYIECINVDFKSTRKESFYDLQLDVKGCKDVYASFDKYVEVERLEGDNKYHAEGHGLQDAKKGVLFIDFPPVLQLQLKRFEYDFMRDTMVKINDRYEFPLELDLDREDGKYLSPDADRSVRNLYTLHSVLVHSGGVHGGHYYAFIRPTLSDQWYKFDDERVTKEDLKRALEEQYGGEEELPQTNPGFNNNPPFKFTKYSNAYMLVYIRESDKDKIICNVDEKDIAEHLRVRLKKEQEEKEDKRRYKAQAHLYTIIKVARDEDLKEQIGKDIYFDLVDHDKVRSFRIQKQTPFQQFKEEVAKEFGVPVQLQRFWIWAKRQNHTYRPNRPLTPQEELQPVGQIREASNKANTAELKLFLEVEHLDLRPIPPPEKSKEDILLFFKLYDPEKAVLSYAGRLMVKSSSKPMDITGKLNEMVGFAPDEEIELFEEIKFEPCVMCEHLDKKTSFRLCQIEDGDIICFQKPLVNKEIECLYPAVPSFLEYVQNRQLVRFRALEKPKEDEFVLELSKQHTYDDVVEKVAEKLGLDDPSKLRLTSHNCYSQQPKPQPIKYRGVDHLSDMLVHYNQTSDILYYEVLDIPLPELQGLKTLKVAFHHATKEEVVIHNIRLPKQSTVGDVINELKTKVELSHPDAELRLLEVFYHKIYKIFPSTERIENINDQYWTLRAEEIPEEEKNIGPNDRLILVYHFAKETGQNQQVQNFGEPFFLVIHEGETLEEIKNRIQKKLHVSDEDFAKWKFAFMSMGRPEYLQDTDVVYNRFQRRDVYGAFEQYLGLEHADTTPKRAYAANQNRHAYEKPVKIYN
# T2: FLAG-UBP13 (Arabidopsis thaliana) (UniProt Q84WU2)
# T2 sequence: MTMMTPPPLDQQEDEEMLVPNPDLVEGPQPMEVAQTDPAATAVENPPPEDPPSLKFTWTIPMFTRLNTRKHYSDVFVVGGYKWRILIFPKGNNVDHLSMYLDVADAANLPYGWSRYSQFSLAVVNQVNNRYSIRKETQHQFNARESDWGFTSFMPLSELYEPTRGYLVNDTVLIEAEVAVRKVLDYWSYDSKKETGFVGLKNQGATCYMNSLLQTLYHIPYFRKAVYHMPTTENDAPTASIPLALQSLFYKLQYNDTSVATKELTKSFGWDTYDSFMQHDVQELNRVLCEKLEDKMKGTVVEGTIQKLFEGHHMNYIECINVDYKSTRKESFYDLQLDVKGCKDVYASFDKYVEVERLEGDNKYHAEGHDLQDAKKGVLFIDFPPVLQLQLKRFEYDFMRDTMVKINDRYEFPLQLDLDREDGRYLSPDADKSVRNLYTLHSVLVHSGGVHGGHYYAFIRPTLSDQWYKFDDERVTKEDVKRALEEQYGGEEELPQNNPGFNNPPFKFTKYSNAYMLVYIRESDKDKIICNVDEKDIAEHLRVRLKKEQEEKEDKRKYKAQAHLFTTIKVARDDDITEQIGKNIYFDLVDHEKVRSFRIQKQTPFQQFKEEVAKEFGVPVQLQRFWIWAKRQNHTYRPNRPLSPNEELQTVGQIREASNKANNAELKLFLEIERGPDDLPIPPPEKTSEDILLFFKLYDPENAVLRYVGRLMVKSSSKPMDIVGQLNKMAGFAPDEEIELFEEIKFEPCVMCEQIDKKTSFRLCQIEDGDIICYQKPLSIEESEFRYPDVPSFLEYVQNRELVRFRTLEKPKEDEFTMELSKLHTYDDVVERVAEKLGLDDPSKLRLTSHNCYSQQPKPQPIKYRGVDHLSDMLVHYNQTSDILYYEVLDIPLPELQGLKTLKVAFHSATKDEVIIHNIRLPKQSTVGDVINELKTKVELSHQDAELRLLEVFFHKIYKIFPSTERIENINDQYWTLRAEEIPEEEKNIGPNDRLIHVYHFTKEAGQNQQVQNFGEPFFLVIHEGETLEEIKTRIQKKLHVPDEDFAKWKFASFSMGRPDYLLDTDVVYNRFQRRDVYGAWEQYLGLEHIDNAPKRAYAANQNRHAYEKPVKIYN
# Columns and labels:
# [1] = target: T1, FLAG-UBP12 (Arabidopsis thaliana); assay: co-IP
# [2] = target: T2, FLAG-UBP13 (Arabidopsis thaliana); assay: co-IP
binder,measurement,setting,value
"HA-GI (protein, UniProt Q9SQI2 1-1173) MASSSSSERWIDGLQFSSLLWPPPRDPQQHKDQVVAYVEYFGQFTSEQFPDDIAELVRHQYPSTEKRLLDDVLAMFVLHHPEHGHAVILPIISCLIDGSLVYSKEAHPFASFISLVCPSSENDYSEQWALACGEILRILTHYNRPIYKTEQQNGDTERNCLSKATTSGSPTSEPKAGSPTQHERKPLRPLSPWISDILLAAPLGIRSDYFRWCSGVMGKYAAGELKPPTIASRGSGKHPQLMPSTPRWAVANGAGVILSVCDDEVARYETATLTAVAVPALLLPPPTTSLDEHLVAGLPALEPYARLFHRYYAIATPSATQRLLLGLLEAPPSWAPDALDAAVQLVELLRAAEDYASGVRLPRNWMHLHFLRAIGIAMSMRAGVAADAAAALLFRILSQPALLFPPLSQVEGVEIQHAPIGGYSSNYRKQIEVPAAEATIEATAQGIASMLCAHGPEVEWRICTIWEAAYGLIPLNSSAVDLPEIIVATPLQPPILSWNLYIPLLKVLEYLPRGSPSEACLMKIFVATVETILSRTFPPESSRELTRKARSSFTTRSATKNLAMSELRAMVHALFLESCAGVELASRLLFVVLTVCVSHEAQSSGSKRPRSEYASTTENIEANQPVSNNQTANRKSRNVKGQGPVAAFDSYVLAAVCALACEVQLYPMISGGGNFSNSAVAGTITKPVKINGSSKEYGAGIDSAISHTRRILAILEALFSLKPSSVGTPWSYSSSEIVAAAMVAAHISELFRRSKALTHALSGLMRCKWDKEIHKRASSLYNLIDVHSKVVASIVDKAEPLEAYLKNTPVQKDSVTCLNWKQENTCASTTCFDTAVTSASRTEMNPRGNHKYARHSDEGSGRPSEKGIKDFLLDASDLANFLTADRLAGFYCGTQKLLRSVLAEKPELSFSVVSLLWHKLIAAPEIQPTAESTSAQQGWRQVVDALCNVVSATPAKAAAAVVLQAERELQPWIAKDDEEGQKMWKINQRIVKVLVELMRNHDRPESLVILASASDLLLRATDGMLVDGEACTLPQLELLEATARAIQPVLAWGPSGLAVVDGLSNLLKCRLPATIRCLSHPSAHVRALSTSVLRDIMNQSSIPIKVTPKLPTTEKNGMNSPSYRFFNAASIDWKADIQNCLNWEAHSLLSTTMPTQFLDTAARELGCTISLSQ",binding,[1],binds
same,binding,[2],binds
